Test results as given in the supplement of paper PMC12067093, “Discovery and optimisation of a covalent ligand for TRIM25 and its application to targeted protein ubiquitination” (Chemical Science, 2025).
The other results are listed elsewhere or left out.

By UniProt entry, the sequences of proteins in these tests, tags left out. Where a name states a change or a piece, a line headed by the entry shows the natural chain unless it says otherwise.
UniProt Q9UHR6: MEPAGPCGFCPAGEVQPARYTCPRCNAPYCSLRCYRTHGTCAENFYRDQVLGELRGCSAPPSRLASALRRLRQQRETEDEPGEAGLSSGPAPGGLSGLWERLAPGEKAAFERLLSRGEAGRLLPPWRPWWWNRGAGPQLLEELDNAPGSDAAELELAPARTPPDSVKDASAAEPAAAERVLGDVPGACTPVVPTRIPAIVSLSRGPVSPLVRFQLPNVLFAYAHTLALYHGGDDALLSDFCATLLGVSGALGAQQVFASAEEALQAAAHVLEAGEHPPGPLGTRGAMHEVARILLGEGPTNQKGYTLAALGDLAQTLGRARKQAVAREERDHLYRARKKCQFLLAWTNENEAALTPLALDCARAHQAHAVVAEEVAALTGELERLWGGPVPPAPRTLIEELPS
UniProt Q15942: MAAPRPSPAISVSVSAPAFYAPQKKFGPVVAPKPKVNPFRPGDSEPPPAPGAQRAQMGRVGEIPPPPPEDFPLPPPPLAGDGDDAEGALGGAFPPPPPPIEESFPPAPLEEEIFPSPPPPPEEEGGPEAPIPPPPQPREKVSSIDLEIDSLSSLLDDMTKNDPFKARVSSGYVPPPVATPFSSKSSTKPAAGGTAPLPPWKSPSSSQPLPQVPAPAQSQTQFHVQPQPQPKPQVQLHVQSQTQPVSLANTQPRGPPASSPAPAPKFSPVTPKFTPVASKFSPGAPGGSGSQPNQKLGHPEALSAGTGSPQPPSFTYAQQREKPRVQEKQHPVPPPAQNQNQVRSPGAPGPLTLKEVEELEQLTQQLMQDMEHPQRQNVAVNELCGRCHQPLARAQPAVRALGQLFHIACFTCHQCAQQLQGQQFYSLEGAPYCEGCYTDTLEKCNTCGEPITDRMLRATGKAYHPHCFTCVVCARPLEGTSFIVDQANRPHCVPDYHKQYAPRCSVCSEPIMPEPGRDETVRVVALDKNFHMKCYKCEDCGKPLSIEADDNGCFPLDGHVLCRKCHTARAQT
UniProt Q9P2E3: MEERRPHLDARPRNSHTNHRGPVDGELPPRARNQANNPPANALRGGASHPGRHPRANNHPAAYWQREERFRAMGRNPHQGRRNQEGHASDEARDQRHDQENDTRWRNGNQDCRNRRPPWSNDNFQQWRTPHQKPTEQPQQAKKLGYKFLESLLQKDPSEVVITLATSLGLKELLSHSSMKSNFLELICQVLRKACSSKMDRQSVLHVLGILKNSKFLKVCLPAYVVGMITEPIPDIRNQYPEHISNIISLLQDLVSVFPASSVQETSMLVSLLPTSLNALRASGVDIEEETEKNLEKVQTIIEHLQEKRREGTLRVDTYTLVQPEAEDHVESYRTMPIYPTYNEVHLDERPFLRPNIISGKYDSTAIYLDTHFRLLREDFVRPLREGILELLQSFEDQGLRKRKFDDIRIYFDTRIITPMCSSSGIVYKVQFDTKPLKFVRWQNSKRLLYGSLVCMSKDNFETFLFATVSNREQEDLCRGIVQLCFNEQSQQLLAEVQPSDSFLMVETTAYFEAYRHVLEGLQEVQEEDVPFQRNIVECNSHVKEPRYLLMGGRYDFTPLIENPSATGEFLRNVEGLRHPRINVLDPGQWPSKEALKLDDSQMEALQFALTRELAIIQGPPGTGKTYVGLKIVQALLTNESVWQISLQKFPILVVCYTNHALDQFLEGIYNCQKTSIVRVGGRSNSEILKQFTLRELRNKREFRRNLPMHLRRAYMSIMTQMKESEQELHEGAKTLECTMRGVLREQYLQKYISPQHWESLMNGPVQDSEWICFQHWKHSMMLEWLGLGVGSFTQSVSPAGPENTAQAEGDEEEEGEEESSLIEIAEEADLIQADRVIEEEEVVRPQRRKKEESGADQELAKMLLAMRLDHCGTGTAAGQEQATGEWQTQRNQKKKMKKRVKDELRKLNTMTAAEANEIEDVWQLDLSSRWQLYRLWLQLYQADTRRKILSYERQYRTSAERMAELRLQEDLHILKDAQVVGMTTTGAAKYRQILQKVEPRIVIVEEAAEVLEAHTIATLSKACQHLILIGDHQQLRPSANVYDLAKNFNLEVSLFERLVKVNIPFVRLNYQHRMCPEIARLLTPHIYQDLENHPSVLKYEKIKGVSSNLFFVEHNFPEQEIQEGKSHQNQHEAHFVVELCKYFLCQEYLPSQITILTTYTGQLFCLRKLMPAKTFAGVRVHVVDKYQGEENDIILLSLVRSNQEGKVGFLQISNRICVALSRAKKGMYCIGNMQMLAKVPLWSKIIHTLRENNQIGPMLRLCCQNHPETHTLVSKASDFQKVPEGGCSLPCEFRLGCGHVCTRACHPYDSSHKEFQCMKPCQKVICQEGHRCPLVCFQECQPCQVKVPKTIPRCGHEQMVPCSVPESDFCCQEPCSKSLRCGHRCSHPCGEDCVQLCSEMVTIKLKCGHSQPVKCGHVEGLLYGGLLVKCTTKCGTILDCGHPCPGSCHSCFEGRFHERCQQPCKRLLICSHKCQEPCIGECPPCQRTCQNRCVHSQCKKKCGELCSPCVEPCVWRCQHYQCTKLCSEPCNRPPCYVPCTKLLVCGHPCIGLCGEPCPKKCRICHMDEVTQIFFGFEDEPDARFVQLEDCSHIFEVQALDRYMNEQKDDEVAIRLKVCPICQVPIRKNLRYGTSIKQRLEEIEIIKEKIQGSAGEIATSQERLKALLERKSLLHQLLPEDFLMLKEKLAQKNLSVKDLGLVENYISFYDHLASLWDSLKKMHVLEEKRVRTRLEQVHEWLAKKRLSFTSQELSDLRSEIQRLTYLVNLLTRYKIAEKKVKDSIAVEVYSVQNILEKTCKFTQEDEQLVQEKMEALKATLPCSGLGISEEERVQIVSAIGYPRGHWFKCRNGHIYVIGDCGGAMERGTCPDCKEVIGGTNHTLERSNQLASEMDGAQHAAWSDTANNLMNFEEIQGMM
UniProt Q9C0D3: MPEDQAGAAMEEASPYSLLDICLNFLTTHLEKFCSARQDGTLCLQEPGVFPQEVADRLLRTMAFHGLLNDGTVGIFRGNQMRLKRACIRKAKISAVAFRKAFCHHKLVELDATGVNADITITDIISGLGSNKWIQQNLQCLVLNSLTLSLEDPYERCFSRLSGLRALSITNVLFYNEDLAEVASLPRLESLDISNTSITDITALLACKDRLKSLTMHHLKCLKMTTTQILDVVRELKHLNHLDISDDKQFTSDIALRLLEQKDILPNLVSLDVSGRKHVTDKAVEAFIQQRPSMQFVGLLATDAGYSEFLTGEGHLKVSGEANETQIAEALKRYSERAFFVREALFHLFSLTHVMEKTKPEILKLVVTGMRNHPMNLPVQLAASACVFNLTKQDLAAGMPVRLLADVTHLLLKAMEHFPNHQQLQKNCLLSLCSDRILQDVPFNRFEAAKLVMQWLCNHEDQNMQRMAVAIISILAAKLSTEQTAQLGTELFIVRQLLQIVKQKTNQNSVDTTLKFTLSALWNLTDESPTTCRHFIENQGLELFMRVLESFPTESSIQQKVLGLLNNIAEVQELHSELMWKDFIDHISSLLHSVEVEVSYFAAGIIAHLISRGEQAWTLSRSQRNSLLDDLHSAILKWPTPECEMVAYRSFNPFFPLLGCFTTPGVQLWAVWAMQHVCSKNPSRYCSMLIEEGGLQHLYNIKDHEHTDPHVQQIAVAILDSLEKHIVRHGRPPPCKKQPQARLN
UniProt O95218: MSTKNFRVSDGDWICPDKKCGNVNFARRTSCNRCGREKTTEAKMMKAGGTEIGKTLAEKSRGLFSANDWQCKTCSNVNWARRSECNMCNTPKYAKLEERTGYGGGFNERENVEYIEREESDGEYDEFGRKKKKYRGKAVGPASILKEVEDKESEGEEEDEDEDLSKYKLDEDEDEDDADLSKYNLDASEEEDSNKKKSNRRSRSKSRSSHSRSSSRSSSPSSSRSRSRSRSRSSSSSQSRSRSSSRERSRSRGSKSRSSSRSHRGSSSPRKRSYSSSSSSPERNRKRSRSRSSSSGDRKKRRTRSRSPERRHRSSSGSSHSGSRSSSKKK
UniProt Q15649: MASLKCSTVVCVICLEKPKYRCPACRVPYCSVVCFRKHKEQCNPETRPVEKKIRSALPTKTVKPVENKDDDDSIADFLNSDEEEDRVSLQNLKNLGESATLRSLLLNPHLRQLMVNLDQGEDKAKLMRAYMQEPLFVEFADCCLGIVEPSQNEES
UniProt O43264: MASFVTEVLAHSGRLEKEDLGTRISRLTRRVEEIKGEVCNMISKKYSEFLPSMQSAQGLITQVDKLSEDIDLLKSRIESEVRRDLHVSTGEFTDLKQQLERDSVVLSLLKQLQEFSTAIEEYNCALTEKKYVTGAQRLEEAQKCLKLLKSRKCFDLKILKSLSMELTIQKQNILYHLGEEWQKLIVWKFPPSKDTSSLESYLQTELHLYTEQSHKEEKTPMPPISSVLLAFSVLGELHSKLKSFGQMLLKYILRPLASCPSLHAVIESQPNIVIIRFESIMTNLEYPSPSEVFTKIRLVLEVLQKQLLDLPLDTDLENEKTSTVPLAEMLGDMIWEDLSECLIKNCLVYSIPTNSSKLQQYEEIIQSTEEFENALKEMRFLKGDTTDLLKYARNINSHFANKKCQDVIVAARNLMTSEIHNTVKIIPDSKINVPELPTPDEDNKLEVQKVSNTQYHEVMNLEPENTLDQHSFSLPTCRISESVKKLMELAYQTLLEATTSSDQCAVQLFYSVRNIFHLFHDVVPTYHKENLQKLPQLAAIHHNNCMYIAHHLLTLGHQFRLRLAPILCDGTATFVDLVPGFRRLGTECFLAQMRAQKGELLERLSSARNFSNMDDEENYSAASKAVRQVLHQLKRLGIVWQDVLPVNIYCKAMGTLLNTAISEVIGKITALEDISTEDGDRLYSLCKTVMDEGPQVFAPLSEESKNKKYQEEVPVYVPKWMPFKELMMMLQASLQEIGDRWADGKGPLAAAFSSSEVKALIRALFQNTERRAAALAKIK
UniProt Q8NDX6: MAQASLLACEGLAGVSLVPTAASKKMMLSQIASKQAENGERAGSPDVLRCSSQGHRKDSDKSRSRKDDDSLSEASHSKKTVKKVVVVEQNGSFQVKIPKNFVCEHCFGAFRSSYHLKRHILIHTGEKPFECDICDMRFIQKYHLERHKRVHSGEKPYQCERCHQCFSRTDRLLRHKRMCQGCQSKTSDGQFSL
UniProt A8K0R7: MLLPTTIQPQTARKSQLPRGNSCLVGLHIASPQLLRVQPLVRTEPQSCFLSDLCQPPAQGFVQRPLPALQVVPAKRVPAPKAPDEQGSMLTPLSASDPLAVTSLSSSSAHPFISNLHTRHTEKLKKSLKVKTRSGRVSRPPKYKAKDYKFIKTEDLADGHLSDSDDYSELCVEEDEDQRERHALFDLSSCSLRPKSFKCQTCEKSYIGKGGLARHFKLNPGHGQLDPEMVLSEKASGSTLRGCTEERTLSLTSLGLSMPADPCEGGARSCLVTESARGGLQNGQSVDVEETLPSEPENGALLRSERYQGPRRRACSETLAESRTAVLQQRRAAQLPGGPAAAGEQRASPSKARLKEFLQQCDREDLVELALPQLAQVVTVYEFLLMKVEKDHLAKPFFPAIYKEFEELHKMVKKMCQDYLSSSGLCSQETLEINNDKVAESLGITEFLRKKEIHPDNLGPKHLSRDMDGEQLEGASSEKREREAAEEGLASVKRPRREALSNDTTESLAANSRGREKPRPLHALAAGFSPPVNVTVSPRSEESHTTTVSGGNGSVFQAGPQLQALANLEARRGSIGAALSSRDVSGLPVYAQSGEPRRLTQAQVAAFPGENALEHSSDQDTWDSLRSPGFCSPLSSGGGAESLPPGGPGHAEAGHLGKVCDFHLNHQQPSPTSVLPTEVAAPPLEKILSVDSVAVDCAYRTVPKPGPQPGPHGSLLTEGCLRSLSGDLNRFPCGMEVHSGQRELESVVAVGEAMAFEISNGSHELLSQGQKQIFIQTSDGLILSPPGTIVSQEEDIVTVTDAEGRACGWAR
UniProt Q9H900: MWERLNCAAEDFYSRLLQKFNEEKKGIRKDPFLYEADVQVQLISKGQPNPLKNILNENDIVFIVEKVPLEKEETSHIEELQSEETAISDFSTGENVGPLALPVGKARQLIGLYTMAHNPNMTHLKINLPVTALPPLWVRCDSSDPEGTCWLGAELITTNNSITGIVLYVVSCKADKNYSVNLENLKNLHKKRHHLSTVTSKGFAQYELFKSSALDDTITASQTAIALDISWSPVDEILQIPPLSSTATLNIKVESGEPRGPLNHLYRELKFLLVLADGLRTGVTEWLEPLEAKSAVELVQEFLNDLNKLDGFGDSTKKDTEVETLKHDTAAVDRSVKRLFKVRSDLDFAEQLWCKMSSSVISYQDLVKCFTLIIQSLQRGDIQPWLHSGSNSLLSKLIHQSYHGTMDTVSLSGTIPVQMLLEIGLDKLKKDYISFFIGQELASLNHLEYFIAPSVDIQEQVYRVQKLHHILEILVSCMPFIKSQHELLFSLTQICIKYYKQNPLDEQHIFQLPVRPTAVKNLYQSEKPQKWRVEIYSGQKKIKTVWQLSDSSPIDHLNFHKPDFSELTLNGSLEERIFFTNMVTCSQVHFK
UniProt Q9Y5V0: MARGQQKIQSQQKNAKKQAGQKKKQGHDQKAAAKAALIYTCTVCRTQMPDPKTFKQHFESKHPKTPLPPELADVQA

Compound: CC1Cc2ccccc2N1C(=O)C1CCCN(C1)C(=O)CCl (mixture of isomers) [TRIM25 ligand 11 (diastereomer mixture)]
Assay: probe-labelled cysteine peptide fold change vs DMSO (competition) (log2 fold change); higher = less target engagement (more negative = stronger competition)
Conditions: THP-1, incubation time: 4 h
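Also: competitive chemoproteomic profiling in live THP-1 cells with an iodoacetamide desthiobiotin (IA-DTB) probe, comparing probe-labelled peptide intensities in compound-treated cells against DMSO-treated controls.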

Row | Target | probe-labelled cysteine peptide fold change (10 µM) | probe-labelled cysteine peptide fold change (50 µM)
1 | ZNHIT2_Q9UHR6_41_THGTCAENFYR (UniProt Q9UHR6) | 0.0136 | -0.0745
2 | ZNF784_Q8NCA9_301_THFHGPGPGLGDSGGQLGSSAAEGSGSGCGVGDPAEEGRGETAK (UniProt Q8NCA9) | -0.0244 | -0.0853
3 | ZYX_Q15942_384_QNVAVNELCGR (UniProt Q15942) | -0.145 | -0.319
4 | ZYX_Q15942_467_AYHPHCFTCVVCAR (UniProt Q15942) | -0.0414 | 0.0321
5 | ZNFX1_Q9P2E3_1292_VPEGGCSLPCEFR (UniProt Q9P2E3) | -0.109 | -0.373
6 | ZZEF1_O43149_1832+1835_TCFLGGVKPEGHGDDHEMVNMEFTCDHCQGLIIGR (UniProt O43149) | 0.147 | -0.0608
7 | ZYG11B_Q9C0D3_386_NHPMNLPVQLAASACVFNLTK (UniProt Q9C0D3) | -0.118 | -0.118
8 | ZRANB2_O95218_31_RTSCNR (UniProt O95218) | -0.11 | -0.0859
9 | ZNHIT6_Q9NWK9_181_EELMHGECVK (UniProt Q9NWK9) | 0.188 | -0.242
10 | ZRANB2_O95218_15_VSDGDWICPDK (UniProt O95218) | -0.0466 | 0.0327
11 | ZNFX1_Q9P2E3_1302_LGCGHVCTR (UniProt Q9P2E3) | -0.0121 | -0.0647
12 | ZYX_Q15942_467+473_AYHPHCFTCVVCAR (UniProt Q15942) | 0.111 | -0.0518
13 | ZYX_Q15942_470_AYHPHCFTCVVCAR (UniProt Q15942) | -0.0192 | 0.0143
14 | ZYX_Q15942_467+470_AYHPHCFTCVVCAR (UniProt Q15942) | -0.119 | -0.0219
15 | ZNRD1_Q9P1U0_115+118_SADEGQTVFYTCTNCK (UniProt Q9P1U0) | 0.152 | -0.2
16 | ZNHIT3_Q15649_30_VPYCSVVCFR (UniProt Q15649) | -0.153 | -0.142
17 | ZYX_Q15942_553_PLSIEADDNGCFPLDGHVLCR (UniProt Q15942) | 0.0845 | 0.0573
18 | ZNRF1_Q8ND25_202_LPCLCIYHK (UniProt Q8ND25) | -0.139 | -0.17
19 | ZW10_O43264_568_LAPILCDGTATFVDLVPGFR (UniProt O43264) | 0.117 | 0.00333

Record cards, from the list above.
ZNFX1_Q9P2E3_1302_LGCGHVCTR (UniProt Q9P2E3) in the list: probe-labelled cysteine peptide fold change (10 µM) = -0.0121; probe-labelled cysteine peptide fold change (50 µM) = -0.0647
ZZEF1_O43149_1832+1835_TCFLGGVKPEGHGDDHEMVNMEFTCDHCQGLIIGR (UniProt O43149) in the list: probe-labelled cysteine peptide fold change (10 µM) = 0.147; probe-labelled cysteine peptide fold change (50 µM) = -0.0608

(further entries)

Row | Target | probe-labelled cysteine peptide fold change (10 µM) | probe-labelled cysteine peptide fold change (50 µM)
20 | ZNHIT3_Q15649_42_EQCNPETRPVEK (UniProt Q15649) | -0.0198 | 0.0505
21 | ZZEF1_O43149_2553_CDQATAESNPVTQK (UniProt O43149) | 0.225 | -0.0492
22 | ZPR1_O75312_288_EVIIMATNCENCGHR (UniProt O75312) | -0.318 | -0.0377
23 | ZNF76_P36508_292_THTGERPYTCPEPHCGR (UniProt P36508) | 0.0325 | 0.116
24 | ZYX_Q15942_387_CHQPLAR (UniProt Q15942) | -0.149 | -0.164
25 | ZNF740_Q8NDX6_9_AQASLLACEGLAGVSLVPTAASK (UniProt Q8NDX6) | -0.102 | -0.0641
26 | ZYX_Q15942_553+562_CEDCGKPLSIEADDNGCFPLDGHVLCR (UniProt Q15942) | -0.307 | -0.21
27 | ZYG11B_Q9C0D3_207_LESLDISNTSITDITALLACK (UniProt Q9C0D3) | -0.184 | -0.278
28 | ZW10_O43264_346_NCLVYSIPTNSSK (UniProt O43264) | -0.0105 | 0.193
29 | ZNF839_A8K0R7_48+54_TEPQSCFLSDLCQPPAQGFVQR (UniProt A8K0R7) | -0.326 | -0.294
30 | ZRANB2_O95218_20_CGNVNFAR (UniProt O95218) | -0.125 | -0.11
31 | ZRANB2_O95218_15_VSDGDWICPDKK (UniProt O95218) | -0.131 | -0.0344
32 | ZNF710_Q8N1W2_91_ALEEPAEEEVLEVEAACEK (UniProt Q8N1W2) | 0.158 | -0.171
33 | ZNF800_Q2TB10_49_SGIQQIIECFR (UniProt Q2TB10) | -0.12 | -0.00115
34 | ZNFX1_Q9P2E3_539_NIVECNSHVK (UniProt Q9P2E3) | 0.0145 | -0.127
35 | ZWILCH_Q9H900_585_IFFTNMVTCSQVHFK (UniProt Q9H900) | 0.0233 | 0.107
36 | ZYX_Q15942_562_PLSIEADDNGCFPLDGHVLCR (UniProt Q15942) | -0.203 | -0.0291
37 | ZYX_Q15942_540+562_CEDCGKPLSIEADDNGCFPLDGHVLCR (UniProt Q15942) | -0.0469 | -0.249
38 | ZNF706_Q9Y5V0_44_AALIYTCTVCR (UniProt Q9Y5V0) | -0.155 | 0.148
